Results are given in words; binding and its absence hold for the method and conditions named. Some entries that bind do so weakly or less than the wild type.
Tests used:
[1] = biological target: mouse GCC (guanylyl cyclase C, GUCY2C) on cells (mouse) (UniProt Q3UWA6); experiment: flow cytometry on 293T-mouse GCC.Luc cells
[2] = biological target: mouse GCC (guanylyl cyclase C, GUCY2C) on cells (mouse) (UniProt Q3UWA6); experiment: flow cytometry on 293T-mouse GCC.Luc cells (legend of FIG. 2B)
[3] = biological target: mouse GCC (guanylyl cyclase C, GUCY2C) on cells (mouse) (UniProt Q3UWA6); experiment: immunohistochemistry at 0.5 µg/mL on mouse small intestine sections
[4] = biological target: mouse GCC (guanylyl cyclase C, GUCY2C) on cells (mouse) (UniProt Q3UWA6); experiment: immunohistochemistry at 0.5 µg/mL on mouse small intestine sections (legend of FIG. 3)

Protein sequences, listed by entry. Tags and fused reporters are not part of them. Residues count along the entry.
UniProt Q3UWA6, residues 20-1072: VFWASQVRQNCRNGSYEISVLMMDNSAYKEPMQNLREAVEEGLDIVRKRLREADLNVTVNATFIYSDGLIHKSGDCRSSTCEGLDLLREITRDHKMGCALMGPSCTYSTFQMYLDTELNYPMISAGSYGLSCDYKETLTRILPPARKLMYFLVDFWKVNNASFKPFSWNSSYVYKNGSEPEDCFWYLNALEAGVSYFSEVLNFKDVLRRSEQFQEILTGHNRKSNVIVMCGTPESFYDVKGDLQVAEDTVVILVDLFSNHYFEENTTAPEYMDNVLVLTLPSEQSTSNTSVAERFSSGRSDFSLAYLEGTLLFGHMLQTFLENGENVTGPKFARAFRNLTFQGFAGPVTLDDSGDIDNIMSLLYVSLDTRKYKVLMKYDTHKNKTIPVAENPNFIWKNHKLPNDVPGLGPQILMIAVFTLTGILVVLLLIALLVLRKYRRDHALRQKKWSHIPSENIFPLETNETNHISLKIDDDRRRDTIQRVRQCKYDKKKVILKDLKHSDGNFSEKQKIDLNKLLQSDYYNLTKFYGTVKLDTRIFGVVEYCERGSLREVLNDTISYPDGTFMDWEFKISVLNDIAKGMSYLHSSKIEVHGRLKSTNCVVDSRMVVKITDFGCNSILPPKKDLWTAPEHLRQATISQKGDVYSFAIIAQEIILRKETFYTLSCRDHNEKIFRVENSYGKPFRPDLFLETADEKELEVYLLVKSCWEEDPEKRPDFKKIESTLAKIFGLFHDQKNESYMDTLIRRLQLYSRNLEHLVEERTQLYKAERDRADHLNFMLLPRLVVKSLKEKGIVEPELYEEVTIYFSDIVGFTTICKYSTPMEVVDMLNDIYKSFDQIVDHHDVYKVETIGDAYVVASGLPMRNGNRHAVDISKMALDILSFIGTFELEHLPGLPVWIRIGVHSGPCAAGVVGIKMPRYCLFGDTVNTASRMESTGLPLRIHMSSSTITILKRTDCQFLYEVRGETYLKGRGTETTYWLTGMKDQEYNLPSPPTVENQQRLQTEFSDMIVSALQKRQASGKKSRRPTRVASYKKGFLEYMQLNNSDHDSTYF

Row | Binder | binding [1] | binding [2] | binding [3] | binding [4]
1 | 22G5-Rabbit IgG (antibody, V domains shown, Recombinant rabbit IgG (IgG1k) expressed in HD CHO-S cells: 22G5 VH-Rabbit IgG CH1-CH2-CH3 and 22G5 VL-Rabbit IgG CL; also called 22G5-Rabbit IgG antibody; 22G5 antibody) VH: QSVEESGGRLVTPGTPLTLTCTVSGIDLSSYAMTWVRQAPGEGLEWIGTINTISTAYYANWAKGRFTISKTSTTVDLKIASPTTEDTATYFCARDHGYYDVWGQGTLVTVSS VL: AQVLTQTPSSVSAAVGGTVTINCQASQSVYKNNYLSWYQQKPGQPPRLLIYDASTLASGVPSRFKGSGSGTQFTLTISGVQCDDAATYYCLGEFSCSSGDCAAFGGGTEVVVKG | binds | binds | binds | binds
2 | PF0098-Rabbit IgG (antibody, V domains shown, also called PF0098-Rabbit IgG antibody) VH: QVQLQQPGAELVKPGASVKLSCKASGYTFTSYWMHWVKQRPGQGLEWIGEIKPSNGLTNYIEKFKNKATLTVDKSATTAYMQLSSLTAEDSAVYYCTRTITTTEGYWFFDVWGAGTTVTVSS VL: DIVLTQSPASLAVSLGQRATISCRASESVDYYGTSLMQWYQQKPGQPPKLLIYAASNVESGVPARFSGSGSGTDFSLNIHPVEEDDIAMYFCQQTRKVYTFGGGTKLEIKG | binds | – | – | –

Source: EP4782464A1 (Nanjing Legend Biotech Co., Ltd., dated 2026)
